Paper doi:10.1101/846121
No constants are given. Whether binding was seen depends on the method and setting. Binding seen in cells or lysates may run through a third protein. A result given as binding can be weak or reduced; the word gives no strength.

Protein sequences, listed by entry. Tags and fused reporters are not part of them. Lines headed by an entry give the natural chain unless they say otherwise; changes in a name come on top.
UniProt Q02645: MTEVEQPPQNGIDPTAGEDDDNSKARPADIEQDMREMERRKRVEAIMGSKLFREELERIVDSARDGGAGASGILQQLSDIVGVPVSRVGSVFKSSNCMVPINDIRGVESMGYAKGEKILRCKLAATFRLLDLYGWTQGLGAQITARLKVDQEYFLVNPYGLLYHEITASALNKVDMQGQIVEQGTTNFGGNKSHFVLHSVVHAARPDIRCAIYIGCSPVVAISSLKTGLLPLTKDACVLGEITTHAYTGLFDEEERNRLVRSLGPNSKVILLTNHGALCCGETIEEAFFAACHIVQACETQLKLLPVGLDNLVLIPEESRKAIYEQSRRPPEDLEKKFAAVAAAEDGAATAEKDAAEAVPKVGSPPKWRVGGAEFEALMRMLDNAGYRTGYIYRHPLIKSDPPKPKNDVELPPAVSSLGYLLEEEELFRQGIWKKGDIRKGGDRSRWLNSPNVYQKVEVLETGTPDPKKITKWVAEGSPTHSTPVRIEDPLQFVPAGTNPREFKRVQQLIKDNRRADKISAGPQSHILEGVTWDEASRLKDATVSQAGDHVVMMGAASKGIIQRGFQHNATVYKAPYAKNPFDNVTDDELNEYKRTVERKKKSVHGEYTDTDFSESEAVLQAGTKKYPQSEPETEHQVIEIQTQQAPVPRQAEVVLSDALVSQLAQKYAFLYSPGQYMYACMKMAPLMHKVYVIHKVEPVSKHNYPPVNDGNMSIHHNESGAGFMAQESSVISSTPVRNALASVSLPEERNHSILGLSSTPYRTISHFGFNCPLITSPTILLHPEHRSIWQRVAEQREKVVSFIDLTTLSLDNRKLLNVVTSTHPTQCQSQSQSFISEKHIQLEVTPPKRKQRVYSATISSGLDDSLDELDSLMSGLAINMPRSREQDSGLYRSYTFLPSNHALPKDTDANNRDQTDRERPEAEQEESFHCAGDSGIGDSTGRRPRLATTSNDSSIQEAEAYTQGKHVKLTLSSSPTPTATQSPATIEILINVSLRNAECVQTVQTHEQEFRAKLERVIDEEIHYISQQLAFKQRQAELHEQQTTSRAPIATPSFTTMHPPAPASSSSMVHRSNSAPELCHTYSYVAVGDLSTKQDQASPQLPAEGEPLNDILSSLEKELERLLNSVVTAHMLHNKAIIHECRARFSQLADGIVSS

T1: Discs large (Dlg) (Drosophila (endogenous in third instar larval body wall)) (UniProt P31007)
T1 sequence: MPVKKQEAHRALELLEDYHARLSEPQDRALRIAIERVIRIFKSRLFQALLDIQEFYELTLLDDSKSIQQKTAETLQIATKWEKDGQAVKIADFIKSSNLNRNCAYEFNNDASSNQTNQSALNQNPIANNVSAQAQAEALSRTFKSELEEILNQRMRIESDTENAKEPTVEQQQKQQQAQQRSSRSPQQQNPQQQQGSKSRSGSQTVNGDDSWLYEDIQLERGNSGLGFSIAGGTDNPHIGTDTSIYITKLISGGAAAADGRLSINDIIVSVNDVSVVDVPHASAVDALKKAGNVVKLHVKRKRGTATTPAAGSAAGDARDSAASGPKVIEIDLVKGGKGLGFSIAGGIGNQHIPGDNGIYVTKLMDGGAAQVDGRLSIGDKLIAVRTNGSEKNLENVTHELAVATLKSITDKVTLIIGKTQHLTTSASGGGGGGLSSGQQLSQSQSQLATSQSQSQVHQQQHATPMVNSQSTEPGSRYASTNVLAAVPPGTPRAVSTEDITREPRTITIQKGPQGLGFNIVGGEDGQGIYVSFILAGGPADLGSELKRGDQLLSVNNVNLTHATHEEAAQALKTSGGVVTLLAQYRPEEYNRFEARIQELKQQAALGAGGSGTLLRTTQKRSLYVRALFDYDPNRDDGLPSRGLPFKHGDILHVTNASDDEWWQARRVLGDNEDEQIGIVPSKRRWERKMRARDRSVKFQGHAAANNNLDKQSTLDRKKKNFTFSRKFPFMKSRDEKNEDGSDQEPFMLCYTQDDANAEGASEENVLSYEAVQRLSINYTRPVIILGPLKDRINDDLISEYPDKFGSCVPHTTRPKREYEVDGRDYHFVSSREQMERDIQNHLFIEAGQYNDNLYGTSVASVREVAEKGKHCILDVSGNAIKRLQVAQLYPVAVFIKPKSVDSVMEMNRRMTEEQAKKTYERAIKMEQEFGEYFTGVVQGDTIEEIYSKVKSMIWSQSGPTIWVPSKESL

B1: Draper (Drpr) (receptor, UniProt Q9W0A0 17-1031)
chain: QADLKDLDGPNICKRRELYNVDVVYTELQSFQERGSTWCVTFPPRCSTYRIKHRVVNKTKTIAKNRIVRDCCDGYIASAGECVPHCSEPCQHGRCISPEKCKCDHGYGGPACDINCPPGWYGRNCSMQCDCLNNAVCEPFSGDCECAKGYTGARCADICPEGFFGANCSEKCRCENGGKCHHVSGECQCAPGFTGPLCDMRCPDGKHGAQCQQDCPCQNDGKCQPETGACMCNPGWTGDVCANKCPVGSYGPGCQESCECYKGAPCHHITGQCECPPGYRGERCFDECQLNTYGFNCSMTCDCANDAMCDRANGTCICNPGWTGAKCAERICEANKYGLDCNRTCECDMEHTDLCHPETGNCQCSIGWSSAQCTRPCTFLRYGPNCELTCNCKNGAKCSPVNGTCLCAPGWRGPTCEESCEPGTFGQDCALRCDCQNGAKCEPETGQCLCTAGWKNIKCDRPCDLNHFGQDCAKVCDCHNNAACNPQNGSCTCAAGWTGERCERKCDTGKFGHDCAQKCQCDFNNSLACDATNGRCVCKQDWGGVHCETNCRSGYYGENCDKVCRCLNNSSCDPDSGNCICSAGWTGADCAEPCPPGFYGMECKERCPEILHGNKSCDHITGEILCRTGYIGLTCEHPCPAGLYGPGCKLKCNCEHGGECNHVTGQCQCLPGWTGSNCNESCPTDTYGQGCAQRCRCVHHKVCRKADGMCICETGWSGTRCDEVCPEGFYGEHCMNTCACPSANFQCHAAHGCVCRSGYTGDNCDELIASQRIADQSENSSRASVALTLVLMTLFACIIFAVFIYYRRRVSNLKTEIAHVHYTHDTNPPSWPPNHNFDNPVYGMQAETRLLPNNMRSKMNNFDQRSTMSTDYGDDCNASGRVGSYSINYNHDLLTKNLNADRTNPIVYNESLKEEHVYDEIKHKEGYKDPDEYDHLDYSRPSTSQKPHYHRMNDAMLNINQDEEKPSNVKNMTVLLNKPLPPTEPEPQHECFDNTNTNLDNVSTASPSSSPKFLK

Key:
[1] = molecular target: T1, Discs large (Dlg) (Drosophila (endogenous in third instar larval body wall)); assay: proximity ligation
[2] = molecular target: Hu Li Tai Shao (Hts), Drosophila adducin (Drosophila (endogenous in third instar larval body wall)) (UniProt Q02645); assay: proximity ligation

Molecule | binding [1] | binding [2]
GluRIIB (receptor) | binds | 
B1 |  | binds
